PubChem BioAssay AID488837 (National Center for Advancing Translational Sciences (NCATS), 2010)
Out of some 330,000 compounds screened, about 20 (0.006%) were called active. The inconclusive results got no clear call from the source; some entries with a clear call stand among them for comparison. The call rests on the fitted dose curve; in most records, active means well fitted inhibition curve with a large enough effect; inconclusive means small, poorly fitted or top-dose-only effect, or effect the other way; inactive means flat fitted curve, though single readings scatter. Potencies of inconclusive entries are doubtful fits and often do not repeat.

Sequences of proteins named here, by UniProt entry; tags and fusion partners are left off. A change or cut given only in a name is not applied to a line headed by its entry.
UniProt O00167: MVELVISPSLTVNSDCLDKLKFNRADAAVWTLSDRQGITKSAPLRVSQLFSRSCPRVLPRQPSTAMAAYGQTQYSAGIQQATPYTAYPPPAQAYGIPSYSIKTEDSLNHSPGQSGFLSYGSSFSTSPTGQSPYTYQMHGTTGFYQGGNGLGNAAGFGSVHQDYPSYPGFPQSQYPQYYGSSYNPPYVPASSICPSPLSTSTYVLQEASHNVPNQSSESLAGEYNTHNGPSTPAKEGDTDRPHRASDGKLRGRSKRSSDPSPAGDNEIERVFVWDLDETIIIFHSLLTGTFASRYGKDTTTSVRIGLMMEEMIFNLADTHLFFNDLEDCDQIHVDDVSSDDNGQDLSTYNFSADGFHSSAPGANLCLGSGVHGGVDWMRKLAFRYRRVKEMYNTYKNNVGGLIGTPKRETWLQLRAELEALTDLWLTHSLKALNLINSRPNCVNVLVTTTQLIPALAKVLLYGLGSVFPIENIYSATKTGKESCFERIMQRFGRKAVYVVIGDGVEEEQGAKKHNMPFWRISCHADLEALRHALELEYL

These molecules were tested against Protein phosphatase EYA2 (Homo sapiens) (UniProt O00167) (assay: qHTS Assay for Inhibitors of the Phosphatase Activity of Eya2). Conditions: recombinant Eya2, OMFP fluorescence dephosphorylation (OMFP is methylfluorescein phosphate); activity, negative = inhibition: at 76.9 µM (top of the series) unless noted.
Method in brief: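 Eya2 (0.2 uM) preincubated 10 min at ambient with compound, then OMFP substrate added at 50 uM; 10 min reaction in 50 mM HEPES pH 7.5, 50 mM NaCl, 5 uM MgCl2, 0.05% BSA, 1 mM DTT. Fluorescence read at Ex 485/Em 525 nm.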
On the % scale 0 is the no-effect control and ±100 the full control effect; potency means the concentration at half of the fitted maximal effect.

| SMILES | Potency | activity, negative = inhibition |
| --- | --- | --- |
| CS(=O)(=O)N(CCC#N)Cc1ccco1 | inconclusive: 20 µM [inhibitor, single point] | – |
| Cc1cc(C)nc(N/N=C/c2ccccc2OCc2ccc(Br)cc2)n1 | – | inactive: -8.5% |
| Cc1ncc([N+](=O)[O-])n1Cc1ccc(F)cc1 | inconclusive: 89.1 µM [inhibitor, single point] | – |
| Cc1ccc(OCC(=O)N(Cc2cccs2)C2CCS(=O)(=O)C2)cc1C (stereo not drawn) | inconclusive: 251 µM [inhibitor, single point] | – |
| CC1CCN(CCC(=O)Nc2nccs2)CC1 | inconclusive: 200 µM [inhibitor, partial curve, poor fit] | – |
| O=Cc1cccn1-c1ccccc1 | inconclusive: 22.4 µM [inhibitor, single point] | – |
| O=C(COc1cc(Cl)c(Cl)cc1Cl)Nc1ccncc1 | – | inactive: -17.3% |
| CC(COc1ccccc1)N1CCC(CO)(CCc2ccccc2)CC1 (stereo not drawn) | – | inactive: 2.59% |
| CN(C)CCCN(C(=O)CCOc1ccccc1)c1nc2c(F)cccc2s1 | – | inactive: -17.8% |
| COc1ccc(CCNC(=S)Nc2cccc(C)c2C)cc1 | – | inactive: 6.26% |
| CCN(CC)c1ccc(Nc2nc(N3CCOCC3)c3ccccc3n2)cc1 | – | inactive: -12.3% |
| CN(C)c1cccc(NC(=O)c2cccc3ccccc23)c1 | inconclusive: 100 µM [inhibitor, single point] | – |
| Cc1cc2nc(-c3ccc[nH]c3=O)[nH]c2cc1C | – | inactive: 3.18% |
| CCOc1ccc(NS(=O)(=O)c2ccc(C(=O)NCCCN3CCOCC3)cc2)cc1 | – | inactive: -2.89% |
| CCN1CCN(CCCNC(=O)c2cc3cc4ccc(OC)cc4nc3o2)CC1 | inconclusive: 100 µM [inhibitor, single point] | – |
| CC(C)N1CCC(N2CCN(Cc3ccc4nonc4c3)CC2CCO)CC1 (stereo not drawn) | inconclusive: 17.8 µM [inhibitor, single point] | – |
| CCOCCn1c(CN(C)Cc2ccccc2)nc2c1c(=O)n(C)c(=O)n2C | inconclusive: 12.6 µM [inhibitor, single point] | – |
| Nc1ccc2nc3c(=O)n(CCc4ccccc4)c(=O)[nH]c3nc2c1 | inconclusive: 39.8 µM [activator, partial curve] | – |
| O=C1c2ccccc2-c2onc3ccc(NCCCn4ccnc4)c1c23 | inconclusive: 31.6 µM [activator, partial curve] | – |
| CCCC[C@H]1COCCS(=O)(=O)N1Cc1ccc(Br)cc1 | – | inactive: -12.2% |
| COC(Cc1nnc(SC)n1-c1ccccc1)OC | inconclusive: 158 µM [inhibitor, single point] | – |
| CC1CCc2c(sc3ncnc(SCC(=O)Nc4ccc(C(=O)O)cc4)c23)C1 (stereo not drawn) | – | inactive: -7.74% |
| CCCN(C(=O)c1cn(C)c(=O)c2ccccc12)c1ccccc1C | inconclusive: 22.4 µM [inhibitor, single point] | – |

A draw from above in order of length of the SMILES, rising.

| SMILES | Potency | activity, negative = inhibition |
| --- | --- | --- |
| O=Cc1cccn1-c1ccccc1 | inconclusive: 22.4 µM [inhibitor, single point] | – |
| COc1ccc(CCNC(=S)Nc2cccc(C)c2C)cc1 | – | inactive: 6.26% |
| CC1CCc2c(sc3ncnc(SCC(=O)Nc4ccc(C(=O)O)cc4)c23)C1 (stereo not drawn) | – | inactive: -7.74% |
